The target of the assay is Myc-HDAC1 (UniProt Q13547). As to the kind of experiment: co-IP; HEK293T cells co-transfected with Ty1-Tet1 WT or Ty1-Tet1deltaCD and Myc-HDAC1; lysed in RIPA buffer with protease inhibitors; antibody overnight, protein A/G PLUS-Agarose 2 h, washed five times with lysis buffer and once with PBS; western blot; which protein was precipitated not given.

By UniProt entry, the sequences of proteins in these tests, tags left out.
UniProt Q13547: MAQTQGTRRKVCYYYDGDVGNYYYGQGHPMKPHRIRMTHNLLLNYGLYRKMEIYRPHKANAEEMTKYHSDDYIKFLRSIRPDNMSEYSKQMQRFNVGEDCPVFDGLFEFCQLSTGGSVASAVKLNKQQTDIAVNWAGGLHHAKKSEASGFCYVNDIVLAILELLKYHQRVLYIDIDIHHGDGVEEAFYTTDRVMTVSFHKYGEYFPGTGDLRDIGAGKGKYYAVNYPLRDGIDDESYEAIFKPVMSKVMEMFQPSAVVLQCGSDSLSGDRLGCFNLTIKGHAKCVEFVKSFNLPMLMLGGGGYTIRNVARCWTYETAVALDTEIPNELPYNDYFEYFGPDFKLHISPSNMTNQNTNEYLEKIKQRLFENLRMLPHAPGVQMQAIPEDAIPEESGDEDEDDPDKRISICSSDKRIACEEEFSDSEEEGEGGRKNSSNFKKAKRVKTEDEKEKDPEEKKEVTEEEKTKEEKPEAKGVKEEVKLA
UniProt Q3URK3: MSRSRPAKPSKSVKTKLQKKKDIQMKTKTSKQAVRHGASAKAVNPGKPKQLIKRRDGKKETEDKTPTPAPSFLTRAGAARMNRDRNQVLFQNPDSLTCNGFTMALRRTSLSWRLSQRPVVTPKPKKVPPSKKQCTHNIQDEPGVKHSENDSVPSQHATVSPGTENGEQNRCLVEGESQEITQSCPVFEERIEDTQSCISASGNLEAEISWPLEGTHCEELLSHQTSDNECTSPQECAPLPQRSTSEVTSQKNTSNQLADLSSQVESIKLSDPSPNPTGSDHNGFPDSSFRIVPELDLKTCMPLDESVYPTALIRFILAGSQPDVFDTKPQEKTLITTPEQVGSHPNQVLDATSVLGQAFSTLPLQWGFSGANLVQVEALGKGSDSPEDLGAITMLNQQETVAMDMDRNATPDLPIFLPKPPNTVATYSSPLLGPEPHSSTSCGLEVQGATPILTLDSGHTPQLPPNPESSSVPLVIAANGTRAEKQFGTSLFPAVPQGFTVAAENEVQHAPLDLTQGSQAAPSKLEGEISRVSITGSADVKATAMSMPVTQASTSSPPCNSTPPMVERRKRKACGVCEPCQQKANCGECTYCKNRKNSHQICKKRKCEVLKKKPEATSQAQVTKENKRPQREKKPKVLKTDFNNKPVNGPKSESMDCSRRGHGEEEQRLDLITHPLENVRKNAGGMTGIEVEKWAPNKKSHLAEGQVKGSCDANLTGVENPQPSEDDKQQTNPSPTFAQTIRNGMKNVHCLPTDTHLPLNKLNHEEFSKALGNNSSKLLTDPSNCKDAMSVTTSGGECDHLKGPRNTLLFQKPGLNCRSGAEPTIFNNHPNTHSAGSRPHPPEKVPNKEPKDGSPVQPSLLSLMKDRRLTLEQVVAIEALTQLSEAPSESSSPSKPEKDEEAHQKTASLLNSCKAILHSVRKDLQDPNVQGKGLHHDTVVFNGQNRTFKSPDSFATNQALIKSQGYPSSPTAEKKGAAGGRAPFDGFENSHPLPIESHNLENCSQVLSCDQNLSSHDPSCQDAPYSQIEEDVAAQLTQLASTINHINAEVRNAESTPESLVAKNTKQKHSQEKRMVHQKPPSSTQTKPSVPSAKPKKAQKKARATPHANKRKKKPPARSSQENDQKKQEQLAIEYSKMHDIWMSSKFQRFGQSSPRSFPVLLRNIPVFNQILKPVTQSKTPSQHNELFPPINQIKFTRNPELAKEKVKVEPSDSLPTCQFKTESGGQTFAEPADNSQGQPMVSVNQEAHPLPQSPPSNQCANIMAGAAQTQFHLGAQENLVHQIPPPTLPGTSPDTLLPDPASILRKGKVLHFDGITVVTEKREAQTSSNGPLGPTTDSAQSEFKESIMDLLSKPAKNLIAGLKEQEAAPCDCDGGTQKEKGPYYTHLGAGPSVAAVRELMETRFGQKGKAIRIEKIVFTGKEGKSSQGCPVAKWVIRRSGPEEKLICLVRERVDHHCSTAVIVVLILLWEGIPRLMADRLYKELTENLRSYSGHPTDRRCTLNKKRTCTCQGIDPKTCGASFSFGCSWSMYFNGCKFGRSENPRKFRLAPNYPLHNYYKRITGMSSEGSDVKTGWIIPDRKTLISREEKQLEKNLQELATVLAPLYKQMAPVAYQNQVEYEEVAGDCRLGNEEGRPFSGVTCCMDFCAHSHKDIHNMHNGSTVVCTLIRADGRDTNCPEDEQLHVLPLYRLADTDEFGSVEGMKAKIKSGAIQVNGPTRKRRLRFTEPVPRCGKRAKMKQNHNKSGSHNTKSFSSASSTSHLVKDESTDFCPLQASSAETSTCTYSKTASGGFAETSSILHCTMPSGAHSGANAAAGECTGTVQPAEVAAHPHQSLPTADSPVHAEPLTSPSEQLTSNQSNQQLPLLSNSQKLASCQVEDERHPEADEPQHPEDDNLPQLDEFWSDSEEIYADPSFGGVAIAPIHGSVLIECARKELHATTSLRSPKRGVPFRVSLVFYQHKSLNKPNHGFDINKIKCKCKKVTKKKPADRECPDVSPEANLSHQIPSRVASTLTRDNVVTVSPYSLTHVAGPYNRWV

These are yes or no findings as the source states them, for the method shown. In cells and extracts the contact can be indirect. Some results given as binding are weak or reduced against the parent protein; the word gives no strength.

As to “Ty1-Tet1 WT (from UniProt Q3URK3 1-2039) (enzyme)”, the binding entry is “binds”.
